Data published in PMC9604285.

Amino acid sequences for entries named in this document (tags omitted).
UniProt P50667: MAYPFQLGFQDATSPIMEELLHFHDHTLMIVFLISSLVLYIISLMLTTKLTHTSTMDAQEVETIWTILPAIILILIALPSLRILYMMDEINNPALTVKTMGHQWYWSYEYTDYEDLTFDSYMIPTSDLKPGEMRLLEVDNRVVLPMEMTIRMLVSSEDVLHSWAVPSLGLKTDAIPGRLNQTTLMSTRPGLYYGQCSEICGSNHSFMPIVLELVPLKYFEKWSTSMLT

Biological target: T1, recombinant rat group IIA secreted phospholipase A2 (rGIIA) (rat) (UniProt P14423)
T1 sequence: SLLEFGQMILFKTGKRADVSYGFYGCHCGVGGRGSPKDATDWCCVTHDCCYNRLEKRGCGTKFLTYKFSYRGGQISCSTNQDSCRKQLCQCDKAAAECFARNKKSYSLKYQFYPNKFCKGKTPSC
Experiment: affinity purification with mass spectrom; only the target purified

Substance: subunit II of cytochrome c oxidase (CCOX-II) (from UniProt P50667 1-228)
- binding: binds

No constants are given. Whether binding was seen depends on the method and setting. In cells and extracts the contact can be indirect. These calls come from enrichment with a bait or labelling near it, and not all partners need be listed.
